PubChem BioAssay AID743121 – NCATS | 2013
Shown is an unselected part of about 26,000 reagents. 167 of them (0.63%) were called active. 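Calls are per gene from RSA p-values that are not deposited; an individual active-marked siRNA can sensitise only weakly.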 Reagents against one gene are numbered here. Not all columns of the deposit are shown. No sequences are given here.

- Assay: 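Partners whose loss is lethal together with topoisomerase I blockade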 (primary screen)
- Cell system: MDA-MB-231 cells, a human breast cancer line
- Knock-down reagent: single siRNA against human genes, 20 nM siRNA (0.8 pmol per well)
- Time to read-out: 120 h (drug added 48 h after transfection, read 72 h later)
- Conditions: camptothecin 20 nM (about EC30) for 72 h; vehicle 0.1% DMSO in parallel plates
- Read-out: 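CellTiter-Glo ATP signal, scaled to control siRNA as percent viability; sensitisation given as log2 of untreated divided by camptothecin-treated viability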
- Reading the numbers: log2 vehicle/camptothecin viability: higher = stronger sensitisation to camptothecin
- Hit rule: 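Each gene scored by redundant siRNA activity (RSA) over its individual siRNA ratios; a gene is called active at p < 0.001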

MTA2 (metastasis associated 1 family member 2) #1 | log2 vehicle/camptothecin viability = 0.204; outcome = inactive
MTA2 (metastasis associated 1 family member 2) #2 | log2 vehicle/camptothecin viability = 0.561; outcome = inactive
MTA2 (metastasis associated 1 family member 2) #3 | log2 vehicle/camptothecin viability = 0.441; outcome = inactive
MTA2 (metastasis associated 1 family member 2) #4 | log2 vehicle/camptothecin viability = -0.168; outcome = inactive
UCN2 (urocortin 2) #1 | log2 vehicle/camptothecin viability = -0.149; outcome = inactive
UCN2 (urocortin 2) #2 | log2 vehicle/camptothecin viability = -0.121; outcome = inactive
UCN2 (urocortin 2) #3 | log2 vehicle/camptothecin viability = -0.905; outcome = inactive
UCN2 (urocortin 2) #4 | log2 vehicle/camptothecin viability = -0.65; outcome = inactive
CD46 (CD46 molecule) #1 | log2 vehicle/camptothecin viability = -0.0386; outcome = inactive
CD46 (CD46 molecule) #2 | log2 vehicle/camptothecin viability = -0.151; outcome = inactive
CD46 (CD46 molecule) #3 | log2 vehicle/camptothecin viability = -0.264; outcome = inactive
CD46 (CD46 molecule) #4 | log2 vehicle/camptothecin viability = -0.303; outcome = inactive
SLC9A3 #1 | log2 vehicle/camptothecin viability = 0.616; outcome = inactive
SLC9A3 #2 | log2 vehicle/camptothecin viability = -0.164; outcome = inactive
SLC9A3 #3 | log2 vehicle/camptothecin viability = -0.129; outcome = inactive
SLC9A3 #4 | log2 vehicle/camptothecin viability = -0.0707; outcome = inactive
RAC3 (Rac family small GTPase 3) #1 | log2 vehicle/camptothecin viability = -0.654; outcome = inactive
RAC3 (Rac family small GTPase 3) #2 | log2 vehicle/camptothecin viability = -0.221; outcome = inactive
RAC3 (Rac family small GTPase 3) #3 | log2 vehicle/camptothecin viability = -0.25; outcome = inactive
RAC3 (Rac family small GTPase 3) #4 | log2 vehicle/camptothecin viability = -0.439; outcome = inactive
GLMN (glomulin) #1 | log2 vehicle/camptothecin viability = -0.035; outcome = inactive
GLMN (glomulin) #2 | log2 vehicle/camptothecin viability = 0.00636; outcome = inactive
GLMN (glomulin) #3 | log2 vehicle/camptothecin viability = -0.229; outcome = inactive
GLMN (glomulin) #4 | log2 vehicle/camptothecin viability = 0.675; outcome = inactive
TICAM1 (TIR domain containing adaptor molecule 1) #1 | log2 vehicle/camptothecin viability = -0.508; outcome = inactive
TICAM1 (TIR domain containing adaptor molecule 1) #2 | log2 vehicle/camptothecin viability = 0.0872; outcome = inactive
TICAM1 (TIR domain containing adaptor molecule 1) #3 | log2 vehicle/camptothecin viability = 0.704; outcome = inactive
TPT1P8 (TPT1 pseudogene 8) #1 | log2 vehicle/camptothecin viability = 0.144; outcome = inactive
TPT1P8 (TPT1 pseudogene 8) #2 | log2 vehicle/camptothecin viability = 0.342; outcome = inactive
TPT1P8 (TPT1 pseudogene 8) #3 | log2 vehicle/camptothecin viability = -0.0294; outcome = inactive
TPT1P8 (TPT1 pseudogene 8) #4 | log2 vehicle/camptothecin viability = 0.68; outcome = inactive
MMP11 (matrix metallopeptidase 11) #1 | log2 vehicle/camptothecin viability = 0.0262; outcome = inactive
MMP11 (matrix metallopeptidase 11) #2 | log2 vehicle/camptothecin viability = 0.0993; outcome = inactive
MMP11 (matrix metallopeptidase 11) #3 | log2 vehicle/camptothecin viability = -0.152; outcome = inactive
OLFM2 (olfactomedin 2) #1 | log2 vehicle/camptothecin viability = -0.0833; outcome = inactive
OLFM2 (olfactomedin 2) #2 | log2 vehicle/camptothecin viability = 0.0633; outcome = inactive
OLFM2 (olfactomedin 2) #3 | log2 vehicle/camptothecin viability = -0.386; outcome = inactive
OLFM2 (olfactomedin 2) #4 | log2 vehicle/camptothecin viability = -0.0983; outcome = inactive
